Where two headings read alike, the source gives them in different places.
System: MDA-MB-231
Test: cells
Conditions: Homo sapiens

Which IC50 (MDA-MB-231, read-out: IC50 (FIG. 37)) does the source give for `COc1cc2c(c(OC)c1OC)-c1ccc(OC)c(=O)cc1[C@@H](NC(C)=O)CC2` [colchicine] here?
Its IC50 is 17.5 nM.

And the IC50 (MDA-MB-231, read-out: IC50, cell viability)?
Its IC50 is 17.5 nM.
